Here are results for two molecules from article PMC8039031.

Chains of the proteins cited; added tags and fusions are not shown. Lines headed by an entry give the natural chain unless they say otherwise; changes in a name come on top.
UniProt P40763: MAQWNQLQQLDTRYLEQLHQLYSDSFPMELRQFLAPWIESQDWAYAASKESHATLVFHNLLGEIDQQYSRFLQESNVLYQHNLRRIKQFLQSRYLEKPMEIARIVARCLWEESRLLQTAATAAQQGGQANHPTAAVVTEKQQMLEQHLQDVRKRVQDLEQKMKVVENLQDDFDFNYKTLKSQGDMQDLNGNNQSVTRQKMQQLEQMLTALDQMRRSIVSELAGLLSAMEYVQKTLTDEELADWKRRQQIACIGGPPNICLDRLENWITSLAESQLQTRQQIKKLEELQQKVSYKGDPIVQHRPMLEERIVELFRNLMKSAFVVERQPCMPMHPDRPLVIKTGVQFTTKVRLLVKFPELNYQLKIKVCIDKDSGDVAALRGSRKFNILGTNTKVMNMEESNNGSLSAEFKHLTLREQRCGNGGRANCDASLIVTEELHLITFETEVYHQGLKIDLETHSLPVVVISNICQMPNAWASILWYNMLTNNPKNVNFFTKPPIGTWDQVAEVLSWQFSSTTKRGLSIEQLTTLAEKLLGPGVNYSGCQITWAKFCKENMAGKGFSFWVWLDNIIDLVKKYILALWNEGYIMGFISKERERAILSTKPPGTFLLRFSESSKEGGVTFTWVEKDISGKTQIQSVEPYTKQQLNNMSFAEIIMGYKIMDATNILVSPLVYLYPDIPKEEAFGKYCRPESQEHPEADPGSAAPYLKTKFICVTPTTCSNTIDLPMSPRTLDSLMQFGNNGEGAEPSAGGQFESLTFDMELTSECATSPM

The target in assay [1] is T1, Myc-CREPT (cell cycle-related and elevated-expression protein in tumours, RPRD1B) (UniProt Q9NQG5).
T1 sequence: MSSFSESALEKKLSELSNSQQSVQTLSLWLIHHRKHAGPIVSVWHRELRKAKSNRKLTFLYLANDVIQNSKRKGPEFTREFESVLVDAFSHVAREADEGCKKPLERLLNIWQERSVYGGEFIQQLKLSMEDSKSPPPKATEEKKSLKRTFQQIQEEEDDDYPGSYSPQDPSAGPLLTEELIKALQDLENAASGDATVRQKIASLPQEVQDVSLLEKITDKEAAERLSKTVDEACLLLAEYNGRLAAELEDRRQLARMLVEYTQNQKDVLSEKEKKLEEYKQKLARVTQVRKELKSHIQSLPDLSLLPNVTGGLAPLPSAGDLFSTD
Briefly: co-IP; exogenously expressed proteins, cells treated with LIF; HEK293T (Fig. 4a); cells of Fig. 4c not stated.

A further assay concerns the target DB-LD domain of STAT3. Description: pull-down; GST pull-down using purified proteins, CREPT and deletion mutants of STAT3 (Fig. 4i); both purified.
A further assay deals with SH2-CT domain of STAT3. The assay is described as above.

No constants are given. Whether binding was seen depends on the method and setting. For part of these data: Binding calls can cover weak binding; strength is not graded here. Where a sequence is shown, tags or fusion partners need not be part of it. For part of these data: Binding seen in cells or lysates may run through a third protein.

In the case of STAT3C/Y705F (from UniProt P40763), the binding entry in assay [1] is recorded as “no binding”.

B1: CREPT (purified protein of the GST pull-down of Fig. 4i) (protein, UniProt Q9NQG5 1-326)
chain: MSSFSESALEKKLSELSNSQQSVQTLSLWLIHHRKHAGPIVSVWHRELRKAKSNRKLTFLYLANDVIQNSKRKGPEFTREFESVLVDAFSHVAREADEGCKKPLERLLNIWQERSVYGGEFIQQLKLSMEDSKSPPPKATEEKKSLKRTFQQIQEEEDDDYPGSYSPQDPSAGPLLTEELIKALQDLENAASGDATVRQKIASLPQEVQDVSLLEKITDKEAAERLSKTVDEACLLLAEYNGRLAAELEDRRQLARMLVEYTQNQKDVLSEKEKKLEEYKQKLARVTQVRKELKSHIQSLPDLSLLPNVTGGLAPLPSAGDLFSTD
Consider B1, for which the binding result with DB-LD domain of STAT3 and with SH2-CT domain of STAT3 was “binds” in each case.
